# Laboratory results taken from publication PMC9638930, “Structural basis of flagellar motility regulation by the MogR repressor and the GmaR antirepressor in Listeria monocytogenes” (Nucleic Acids Research, 2022).
# No constants are given. Whether binding was seen depends on the method and setting.
# B1: MogR DBD protein (MogRD; residues 1–162) (domain or fragment, UniProt P0DJO8 1-162)
# chain: MPKSEIRKLLQEIKKQVDNPGNSSTTEIKKMASEAGIDEQTAEEIYHLLTEFYQAVEEHGGIEKYMHSNISWLKIELELLSACYQIAILEDMKVLDISEMLSLNDLRIFPKTPSQLQNTYYKLKKELIQVEDIPKNKPGRKRKTQKNTKKEKTNIFGKVVPA
# Biological target: MogR DBD protein (MogRD; residues 1–162) (Listeria monocytogenes) (UniProt P0DJO8)
# Assay: SEC; Superdex 200 10/300 at room temperature, 20 mM Hepes pH 7.4, 150 mM NaCl, 5 mM βME; GmaRFL, MogRD and their 1:1 molar mixture; both purified
binder,measurement,value
B1,binding,no binding
